These are yes or no findings as the source states them, for the method shown. Binding seen in cells or lysates may run through a third protein. Some binding calls cover weakened binding; strength is not graded here. Sequences can lack the tags named with a protein. Blank lines part the entries; values can stand above or below the binder they belong to.
What was measured:
Flag-Kv6.4 (mouse) = biological target: T1, Flag-Kv6.4 (mouse) (UniProt Q80XM3); experiment: co-IP
T1 sequence: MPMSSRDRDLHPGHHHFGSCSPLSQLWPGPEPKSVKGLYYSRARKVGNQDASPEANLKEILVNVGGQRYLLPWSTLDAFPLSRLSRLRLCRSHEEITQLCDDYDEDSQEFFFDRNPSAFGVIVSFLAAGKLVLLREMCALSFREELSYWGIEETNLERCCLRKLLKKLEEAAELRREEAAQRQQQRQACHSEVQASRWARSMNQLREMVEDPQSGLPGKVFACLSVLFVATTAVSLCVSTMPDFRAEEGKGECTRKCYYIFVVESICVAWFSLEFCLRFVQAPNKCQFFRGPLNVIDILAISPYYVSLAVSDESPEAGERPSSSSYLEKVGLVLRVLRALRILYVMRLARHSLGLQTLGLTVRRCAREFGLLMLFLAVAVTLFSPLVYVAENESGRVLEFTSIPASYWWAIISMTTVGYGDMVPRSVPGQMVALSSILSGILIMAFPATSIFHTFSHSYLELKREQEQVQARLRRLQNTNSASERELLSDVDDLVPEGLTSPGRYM

Kv2.1 (rat) = biological target: T2, Kv2.1 (rat) (UniProt P15387); experiment: co-IP
T2 sequence: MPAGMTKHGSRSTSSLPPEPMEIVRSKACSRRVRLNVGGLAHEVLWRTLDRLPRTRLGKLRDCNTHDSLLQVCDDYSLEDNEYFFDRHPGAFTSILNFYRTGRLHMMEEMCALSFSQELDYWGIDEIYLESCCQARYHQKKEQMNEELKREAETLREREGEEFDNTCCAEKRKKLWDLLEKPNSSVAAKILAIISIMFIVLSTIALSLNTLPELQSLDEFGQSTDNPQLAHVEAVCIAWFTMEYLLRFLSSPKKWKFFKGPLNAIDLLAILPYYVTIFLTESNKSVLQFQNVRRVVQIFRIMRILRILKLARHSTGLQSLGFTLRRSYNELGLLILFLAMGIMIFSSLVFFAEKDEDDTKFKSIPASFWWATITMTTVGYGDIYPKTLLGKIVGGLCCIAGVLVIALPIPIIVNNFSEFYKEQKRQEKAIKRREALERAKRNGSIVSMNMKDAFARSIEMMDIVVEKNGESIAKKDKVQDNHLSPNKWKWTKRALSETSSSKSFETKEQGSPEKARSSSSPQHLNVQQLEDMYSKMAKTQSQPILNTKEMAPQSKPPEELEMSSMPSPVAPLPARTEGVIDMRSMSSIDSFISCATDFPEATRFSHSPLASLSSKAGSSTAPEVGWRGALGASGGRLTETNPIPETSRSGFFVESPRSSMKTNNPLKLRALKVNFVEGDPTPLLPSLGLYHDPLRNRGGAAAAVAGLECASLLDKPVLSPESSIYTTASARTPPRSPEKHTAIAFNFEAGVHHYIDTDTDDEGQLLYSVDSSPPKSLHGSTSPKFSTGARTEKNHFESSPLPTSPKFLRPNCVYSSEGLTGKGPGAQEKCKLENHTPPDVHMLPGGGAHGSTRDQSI

B1: GFP-Kv2.1 (protein, UniProt P15387 1-857)
chain: T2 sequence
binding (Flag-Kv6.4 (mouse)): binds

binding (Kv2.1 (rat)): binds
B2: Flag-Kv6.4 (protein, UniProt Q80XM3 1-506)
chain: T1 sequence

binding (Kv2.1 (rat)): binds
B3: Flag-tagged Kv9.1 (protein, UniProt O35173 1-497)
chain: MVSEFPGPGSRVPWRPRDEALRVNVGGVRRLLSARALARFPGTRLGRLQAAASEEQARRLCDDYDAAAHEFYFDRHPGFFLGLLHFYRTGHLHVLDELCVFAFGQEADYWGLGENALATCCRARYLERRVARPRAWDEDSDAPSSVDPCPDEISDVQRELARYGAARCGRLRRRLWLTMENPGYSLPSKLFSCVSIGVVLASIAAMCIHSLPEYQAREAAAAVAAVAAGRSAEEVRDDPVLRRLEYFCIAWFSFEVSSRLLLAPSTRNFFCHPLNLIDIVSVLPFYLTLLAGAALGDQRGASGEELGDLGKVVQVFRLMRIFRVLKLARHSTGLRSLGATLKHSYREVGILLLYLAVGVSVFSGVAYTAEEENEGFHTIPACWWWGTVSMTTVGYGDVVPETVGGKLAASGCILGGILVVALPITIIFNKFSHFYRRQKALEAAVRSSGQREFEDLLSSVDGVSDVSLETSRDTSQEGRSTDLETQAPREPAKSHSY

binding (Kv2.1 (rat)): binds
B4: Flag-tagged-Kv5.1 (protein, UniProt Q7TSH7 1-493)
chain: MDASAEQSLPEPGSQDSVAGEDIEIVVNVGGVRQVLYGDLLSQYPETRLAELINCLAGGYDTIFSLCDDYDPGKREFYFDRDPDAFKCVIEVYYFGEVHMKKGICPICFKNEMDFWKVDLKFLDDCCKSHLSEKREELEEIARRVQLILDDLGVDAAEGRWRRCQKCVWKFLEKPESSCPARVVAVLSFLLILVSSVVMCMGTIPELQVVDSEGNRVEHPTLENVETACIGWFTLEYLLRLFSSPNKLHFALSFMNIVDVLAILPFYVSLTLTHLGARMMELTNVQQAVQALRIMRIARIFKLARHSSGLQTLTYALKRSFKELGLLLMYLAVGIFVFSALGYTMEQSHPETLFKSIPQSFWWAIITMTTVGYGDIYPKTTLGKLNAAISFLCGVIAIALPIHPIINNFVRYYNKQRVLETAAKHELELMELNSSSAEGKPGGSRSDLDTLPPEPAAREGPSWGSRLKLSHSDTFIPLLTEEKHHRTRLQSCK

binding (Flag-Kv6.4 (mouse)): binds
B5: GFP-Kv2.2 (protein, UniProt Q63099 1-907)
chain: MAEKAPPGLNRKTSRSTLSLPPEPVDIIRSKTCSRRVKINVGGLNHEVLWRTLDRLPRTRLGKLRDCNTHESLLEVCDDYNLNENEYFFDRHPGAFTSILNFYRTGKLHMMEEMCALSFGQELDYWGIDEIYLESCCQARYHQKKEQMNEELRREAETMRDGEGEEFDNTCCPEKRKKLWDLLEKPNSSVAAKILAIVSILFIVLSTIALSLNTLPELQENDEFGQPSDNRKLAHVEAVCIAWFTMEYLLRFLSSPNKWKFFKGPLNVIDLLAILPYYVTIFLTESNKSVLQFQNVRRVVQIFRIMRILRILKLARHSTGLQSLGFTLRRSYNELGLLILFLAMGIMIFSSLVFFAEKDEDATKFTSIPASFWWATITMTTVGYGDIYPKTLLGKIVGGLCCIAGVLVIALPIPIIVNNFSEFYKEQKRQEKAIKRREALERAKRNGSIVSMNLKDAFARSMELIDVAVEKAGESANIKDSVDDNHLSPSRWKWARKALSETSSNKSYENKYQEVSQKDSHEQLNNTSSSSPQHLSAQKLEMLYNEITKTQTHSHPNPDCQEQPERPSAYEEEIEMEEVVCPQEQLAVAQTEVIVDMKSTSSIDSFTSCATDFTETERSPLPPPSASHLQMKFPTDLPGMDEHQRVRAPPFLTLSRDKGPAAREAALDYAPIDITVNLDAGASHGPLQPDSASDSPKSSLKGSNPLKSRSLKVNFQENRGSAPQTPPSTARPLPVTTADFPLTTPQHMSTILLEESPPPGTETLPGADVSAHCQGPSKGLSPRVPKQKLFPFSSRERRSFTEIDTGEDEDFLDLQRPRPDKQADPSPNCLADKPGEARDPLREEGCVGSSSPQNTDHNCRQDIYQAVGEVKKDSSQEGYKMENHLFAPEIHSNPGDTGYCPTRETSM
